In PubChem BioAssay AID1508600 (Functional Genomics Laboratory (NCATS/FGL), 2020):
The whole screen tested about 53,000 sequences, of which about 3,700 (7%) were called active.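 Rule for the calls: active = gene knockdowns whose robust z-score for IL-1 alpha signal is at least 2 or at most -2, so actives lie on both sides; inactive = the rest.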 The list shows a part of the results.

Assay: Components of the Cytosolic LPS Sensing Pathway: Gene Identification via Genome-wide siRNA Screen;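 note: robust z of the log signal after scaling to non-targeting control siRNA wells of the plate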
Conditions: RAW264.7 macrophages, IL-1a HTRF, actives lie on both sides, screened at 100 nM (by protocol), cells primed 5 h with Pam3CSK4 first
Method in brief: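 Cells (RAW264.7, 1×10^4 per well) were transfected with siRNA at 100 nM and cultured 48h at 37 degrees C. Pam3CSK4 was added for 5 hours; LipidA transfection followed for 24 hour. IL-1a was then measured by HTRF.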

Sequence | z-score
GCAGGGAAUAGCAAACUUATT against Nfil3 | inactive: 1.18
GGAGCGUGACUUUGUAUAATT against Ly6g6e | inactive: 0.206
GGAGCAAGAAGAACAUUACTT against Csgalnact2 | inactive: 0.844
CCCAAUUUUUAGUCUUAUGTT against Gdpgp1 | inactive: -0.00619
CCACUGAUUGUUGACUGCUTT against Trip6 | inactive: 1.81
GGUUCAAGAAAAAACCCAATT against Ezh1 | inactive: 0.0229
GGGUAUAUUUUUGAUACCUTT against Ncor2 | inactive: 0.504
GGAUGGAACAGACUAUAGUTT against Oacyl | inactive: -0.643
GGCACCUAGAAUGAGAUGCTT against Nhlh2 | inactive: 0.498
CCAAAACAAUACUCACCACTT against Mfap4 | inactive: -0.361
GGUCCUAAUGCACUUUUUATT against 1700093K21Rik | inactive: 0.718
GGUGGAUGCAAUUCUCUGUTT against Qdpr | inactive: -0.631
GGGAAAUCCUUUCUCAGUATT against Ugt3a2 | inactive: -1.92
GGUUCUCAAAGAAAAGUUUTT against Bola3 | inactive: -0.623
GCCUAAGGUCCAAACCAAGTT against Rpl29 | inactive: 0.134
GUGUAUCACAAGACUAUGCTT against Leap2 | inactive: 1.86
GGAAAUUGCCUUCUACGGGTT against Abcd1 | inactive: 0.116
GGACAUAAGAAAAUGACCATT against Mbtd1 | inactive: 0.148
CCUCUUUCAUAACUGAUGUTT against Fam161b | inactive: 0.0861
CCUUCAUUCUCAUUGGCAUTT against Olfr591 | inactive: -0.163
GGAAAUCCAUUGUUUAAAGTT against Wt1 | active: 2.01
GGUGGAGUUUGUGCAGAAGTT against Pla2g4e | inactive: -0.658

Part of the list above, as a markdown table.

| Sequence | z-score |
| --- | --- |
| CCAAAACAAUACUCACCACTT against Mfap4 | inactive: -0.361 |
| GGUCCUAAUGCACUUUUUATT against 1700093K21Rik | inactive: 0.718 |
| GGUGGAUGCAAUUCUCUGUTT against Qdpr | inactive: -0.631 |
| GGAAAUCCAUUGUUUAAAGTT against Wt1 | active: 2.01 |

Following part

Sequence | z-score
GGCUGAAAAGAAAAACAGATT against Rgs5 | inactive: -0.378
GCGUGCUUAUGAACAUAGUTT against Spen | active: 2.02
GGAAUUCAGCGAAGAGAAUTT against Rgs10 | inactive: -1.48
GGAAAGAAGAAAUGAGAAGTT against Gm9871 | inactive: -1.57
GCCCUCACAGCCAGAAUUGTT against Pram1 | active: -2.15
GGGAGUAUUACUCUAUUCUTT against Fam168b | inactive: 0.569
CCUGACGAUCAAAUCACUGTT against Mvb12a | inactive: 0.0387
GGAUCAUCAAGGACUUCAUTT against Ppil1 | inactive: 0.464
GGAACCUACUGCUACAUCATT against Sftpc | active: 2.24
GGGACAUCUUCUCCAAUGATT against Slc24a3 | inactive: -0.354
GGUCCAGCUGUUCAUGACUTT against Kcnn4 | inactive: 0.268
GCGGCUUUGGAAUGACUCUTT against Samd8 | inactive: -0.0645
GGUUCUAUCUGAUAGGCGATT against Gdf9 | inactive: 0.574
GGUUCUAGCAAACGGAGAATT against Phf12 | inactive: 1.76
GGAAGACAACAACCUAGAATT against Rpn1 | inactive: -0.894
GGGAAGGCACACCAUAGAATT against Zfp369 | inactive: 1.11
CCAGGAGACCCAAUGUUGUTT against Pramel25 | inactive: -0.48
GGCCCUUCAUGAAGAGCAATT against Carf | active: 2.07
GGAACACUUUAAGACCAAATT against Fmnl1 | inactive: 0.482
GGACAAGAACAAUUGCUAUTT against Zscan4c | inactive: 0.73
GCAGGUUUAACAACUUACUTT against Dmgdh | active: 3.07
CGGGAAGAAGUUCAUAAAUTT against Topbp1 | inactive: 0.36

Sequence | z-score
CGAAAUCCUAGUUUCGUCCTT against Spns1 | active: 3.29
GGGAGAUGAAGAGGAGAAGTT against Smad9 | inactive: 0.448
GGAGGUAACAACAACAGAATT against BC028528 | inactive: 0.7
CGAUUACAUCCUUUUUGACTT against Gpn3 | inactive: -0.228
GGGACAGUAGAAGAUGUAGTT against Got2 | inactive: -0.706
GGCAGUCAAUGAAGUUUUUTT against Fbxo38 | inactive: 1.11
GGCACCUUGGAGUUACAUATT against Pcdha10 | inactive: -0.24
GGUGACUAGUUCCAGAAGATT against Ptprm | inactive: -0.234
CGACUUCACCUUAUUCCUGTT against Nle1 | inactive: 0.811
CGGGUAACAGAAAUACUGUTT against Trib1 | inactive: 1.15
GCAUCUGGGACAUUUAGAGTT against Cd200r3 | inactive: -1.08
CGAGUCAAUCAACUUGUCUTT against Olfr54 | inactive: -0.882
GGAAUGUCGAAUUGAUUGUTT against Klrb1b | inactive: 0.524
GGUCACGAUUAUCUUCAAATT against Rgmb | inactive: -0.708
GUCAAAGCACCAUUUGAGUTT against Vmn1r8 | inactive: -0.842
UACUUCUGACUGUCAUUGGTT against Olfr310 | inactive: 0.92
GCUUUUCUAGAAUACAGCCTT against Tdpoz4 | inactive: 0.525
GGCUCAAGAGAAAAGAAGGTT against Cstdc1 | inactive: -0.594
GGCAACAUCCAAAAACUCUTT against Yme1l1 | inactive: -0.338
GGCAUCCAUGUGCUCUUUCTT against Tex13a | active: -2.49
CCGGUGACUUGACUUACUATT against Man1a2 | inactive: 1.76
CCAGCAAAUGAGAGGUCUGTT against Olfr1024 | inactive: 0.676

Sequence | z-score
GGCCAUUCUGGAAACUCCATT against Foxp4 | inactive: -0.0644
GCAAGCCAACUGACCAUCATT against Nudt2 | inactive: 0.486
GCGGCUCUUACGAGGUUUATT against Upk3a | inactive: 0.024
GGAAACCUCCGAAAGGCAUTT against Rcor1 | inactive: -0.0503
GGAUCUUCUUCUAUCAGUCTT against Ncf4 | inactive: 0.487
CCAAAUGAUUCUGUGGCUGTT against Cebpe | inactive: -1.24
GGAUGCACUAUCAUUAAGCTT against Tpx2 | inactive: -0.118
GGGUUUUGCUACAUCAAUGTT against Pgm2l1 | inactive: 0.853
GGAUAUCCGCCUCACUCUUTT against Golph3l | inactive: 0.813
GGCAAAGGACUUCAUGGCUTT against B4galt4 | inactive: -1.42
CCACUUAACGAAGAAAUUATT against 8030462N17Rik | inactive: 0.891
GGCAGAAAAGAUGGAAAAUTT against Evi5l | active: -2.1
CCACCCUGUAUGAAUUUCUTT against Ripply3 | inactive: -1.14
GGGAUUUUGCUGAAACUCATT against Klhl12 | inactive: 0.531
GCUUGGCAGGUGAAUGUCATT against Oprm1 | inactive: -0.686
GGAUGAUGAAGUCAAAUUUTT against Slc26a5 | inactive: 0.0656
GGUUGAAGAUGAAAGAAGATT against Sin3a | inactive: 0.132
CGCAUAUUGAGAUAUCUUGTT against Cbln3 | inactive: -0.343
CCACACGAGUAUUUUAGUATT against Tmem150a | inactive: -1.2
GCCGUUGGUCGUGUUCGUUTT against Cmpk1 | inactive: 0.927
GCAGCAAGUUUUGUCAGGGTT against Tmprss13 | inactive: -1.06
GGCAUGUCUUAAUUUCAUUTT against Shisa2 | inactive: 0.333

Some values from the results shown:
z-score with GGCAGAAAAGAUGGAAAAUTT against Evi5l reads active: -2.1
z-score with CCAAAUGAUUCUGUGGCUGTT against Cebpe reads inactive: -1.24
z-score with GCUUGGCAGGUGAAUGUCATT against Oprm1 reads inactive: -0.686

Continuation.

Sequence | z-score
GGAUAGAUGGUACACGUCUTT against Khdc3 | inactive: 1
GGAACACAAACUGAAAGUCTT against Elac2 | inactive: 0.103
CCUCGACAUCUAAUGAAGATT against 4933405O20Rik | inactive: -1.58
GCAACUGGCAGUCGCCUAUTT against Zfp940 | inactive: 0.381
GGGUAUGUGCAAAUAUUCATT against Anln | inactive: -0.709
GCAAAUCGAAAGCGGAGGUTT against Fem1c | inactive: 0.302
GGAAUUCAGGGAGCUUCGATT against Vps50 | inactive: -1.63
UGAUCUACACUUUGGCUGUTT against Olfr235 | inactive: -0.943
GCAAACUGCUCUGUGGUAUTT against Olfr1310 | inactive: -1.65
CGUGUUUCGACACCUCCUUTT against Taar9 | inactive: 1.39
CGAGCUAGAAGAGCUUCCATT against Hdgfl2 | inactive: -0.829
GGGAAUGUCUGAAAGUCCCTT against Klhdc10 | inactive: 0.66
GGUUGGUUCUUACUUGAAATT against Mindy3 | inactive: 0.613
GAAGUUCAAUGGAGAAGACTT against Arl2 | inactive: -0.825
GCCAAUCUGGUGAUACUUCTT against Vmn1r71 | inactive: -1.64
GGUUGUGGCCAUCAAGAAATT against Mapk15 | inactive: 0.108
GGAGGAGUUCAUUGAGGCATT against Elf5 | inactive: -0.0248
GGUUUUUGUGGAAAUGUGGTT against Smpd4 | active: -2.58
CGCCUUCCUUCAACACGCATT against 1700049L16Rik | inactive: -1.12
